Assay results reported in publication doi:10.1101/755678.
These are yes or no findings as the source states them, for the method shown.

Molecular target: T1, N-terminally fluorescein-labelled P4 peptide (Streptococcus cristatus)
T1 sequence (peptide, fluorescein (FAM) on the N-terminus): NIFKKNVGFKK
Assay: MST

Omp40-41 complex from W83 (OmpA-like OM protein complex) (Porphyromonas gingivalis W83)
binding: no binding
